Results are given in words; binding and its absence hold for the method and conditions named. Binding seen in cells or lysates may run through a third protein. Some results given as binding are weak or reduced against the parent protein; the word gives no strength. Where a sequence is shown, tags or fusion partners need not be part of it.
Legend:
[1] = target: T1, V5-tagged SETD5 (SET domain-containing 5), wild type (mouse) (UniProt Q5XJV7); experiment: co-IP; whole-cell lysate or nuclear fraction of SETD5-V5-transduced 3T3-L1 preadipocytes; anti-V5 immunoprecipitation, immunoblot; before differentiation induction, after differentiation induction (ANAPC2, ANAPC11), or MDI 9 h then 10 μM MG132 12 h (CDC20)
T1 sequence: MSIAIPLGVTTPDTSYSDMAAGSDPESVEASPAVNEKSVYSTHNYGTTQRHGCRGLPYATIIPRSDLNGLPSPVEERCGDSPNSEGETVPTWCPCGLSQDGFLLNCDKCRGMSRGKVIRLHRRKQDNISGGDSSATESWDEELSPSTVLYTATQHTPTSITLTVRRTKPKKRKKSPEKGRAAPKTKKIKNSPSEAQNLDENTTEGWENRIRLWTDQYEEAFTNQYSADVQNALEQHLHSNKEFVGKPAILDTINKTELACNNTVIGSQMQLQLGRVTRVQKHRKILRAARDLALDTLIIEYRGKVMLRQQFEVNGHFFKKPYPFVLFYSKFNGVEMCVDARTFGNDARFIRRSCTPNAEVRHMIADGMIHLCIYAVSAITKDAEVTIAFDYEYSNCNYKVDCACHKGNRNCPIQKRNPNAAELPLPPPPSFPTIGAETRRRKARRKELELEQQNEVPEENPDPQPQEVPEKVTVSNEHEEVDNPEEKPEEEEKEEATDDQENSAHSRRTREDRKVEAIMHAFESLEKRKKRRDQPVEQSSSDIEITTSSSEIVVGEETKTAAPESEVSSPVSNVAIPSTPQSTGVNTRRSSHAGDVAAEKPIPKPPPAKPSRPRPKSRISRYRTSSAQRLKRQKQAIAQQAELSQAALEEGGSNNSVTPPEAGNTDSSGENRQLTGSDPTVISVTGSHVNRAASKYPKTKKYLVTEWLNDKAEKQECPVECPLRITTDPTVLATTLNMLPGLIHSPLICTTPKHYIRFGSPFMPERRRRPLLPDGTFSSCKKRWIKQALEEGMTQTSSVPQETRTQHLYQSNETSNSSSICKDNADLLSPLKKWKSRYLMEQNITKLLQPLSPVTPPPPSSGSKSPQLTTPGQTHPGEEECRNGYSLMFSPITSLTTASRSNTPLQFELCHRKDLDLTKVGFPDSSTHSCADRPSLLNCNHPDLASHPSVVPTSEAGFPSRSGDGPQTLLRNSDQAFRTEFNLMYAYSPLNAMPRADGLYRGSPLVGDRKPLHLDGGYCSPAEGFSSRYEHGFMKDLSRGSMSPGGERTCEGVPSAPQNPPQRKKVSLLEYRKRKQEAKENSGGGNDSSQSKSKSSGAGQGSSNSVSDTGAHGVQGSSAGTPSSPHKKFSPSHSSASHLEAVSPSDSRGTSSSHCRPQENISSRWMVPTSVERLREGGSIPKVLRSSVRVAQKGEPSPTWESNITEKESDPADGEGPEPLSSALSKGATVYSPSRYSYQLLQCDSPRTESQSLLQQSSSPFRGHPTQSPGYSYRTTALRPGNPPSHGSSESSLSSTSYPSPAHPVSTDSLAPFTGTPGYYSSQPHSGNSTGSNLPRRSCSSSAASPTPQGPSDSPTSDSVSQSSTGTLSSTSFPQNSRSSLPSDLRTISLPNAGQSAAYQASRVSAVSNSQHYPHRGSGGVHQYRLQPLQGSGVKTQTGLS

Chains of the proteins cited; added tags and fusions are not shown.
UniProt P28033: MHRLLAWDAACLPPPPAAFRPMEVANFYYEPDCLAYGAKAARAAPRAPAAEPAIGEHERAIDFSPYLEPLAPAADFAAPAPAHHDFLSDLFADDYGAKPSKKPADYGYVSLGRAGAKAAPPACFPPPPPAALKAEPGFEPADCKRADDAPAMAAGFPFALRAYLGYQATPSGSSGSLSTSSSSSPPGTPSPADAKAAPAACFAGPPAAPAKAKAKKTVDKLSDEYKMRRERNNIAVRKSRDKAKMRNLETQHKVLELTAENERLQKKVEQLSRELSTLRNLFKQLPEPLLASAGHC
UniProt Q9JJ66: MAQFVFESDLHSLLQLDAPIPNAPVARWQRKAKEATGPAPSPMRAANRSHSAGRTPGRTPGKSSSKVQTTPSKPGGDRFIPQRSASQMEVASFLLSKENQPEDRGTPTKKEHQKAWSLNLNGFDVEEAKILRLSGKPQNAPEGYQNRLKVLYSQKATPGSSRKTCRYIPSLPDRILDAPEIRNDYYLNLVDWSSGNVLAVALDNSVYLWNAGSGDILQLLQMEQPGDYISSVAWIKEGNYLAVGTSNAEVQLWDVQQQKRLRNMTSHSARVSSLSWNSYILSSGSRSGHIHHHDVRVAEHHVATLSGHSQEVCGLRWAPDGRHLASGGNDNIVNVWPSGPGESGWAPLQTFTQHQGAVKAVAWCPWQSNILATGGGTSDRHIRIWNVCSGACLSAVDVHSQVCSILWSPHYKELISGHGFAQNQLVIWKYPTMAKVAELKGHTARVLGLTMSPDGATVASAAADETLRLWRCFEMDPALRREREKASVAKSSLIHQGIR
UniProt Q8BZQ7: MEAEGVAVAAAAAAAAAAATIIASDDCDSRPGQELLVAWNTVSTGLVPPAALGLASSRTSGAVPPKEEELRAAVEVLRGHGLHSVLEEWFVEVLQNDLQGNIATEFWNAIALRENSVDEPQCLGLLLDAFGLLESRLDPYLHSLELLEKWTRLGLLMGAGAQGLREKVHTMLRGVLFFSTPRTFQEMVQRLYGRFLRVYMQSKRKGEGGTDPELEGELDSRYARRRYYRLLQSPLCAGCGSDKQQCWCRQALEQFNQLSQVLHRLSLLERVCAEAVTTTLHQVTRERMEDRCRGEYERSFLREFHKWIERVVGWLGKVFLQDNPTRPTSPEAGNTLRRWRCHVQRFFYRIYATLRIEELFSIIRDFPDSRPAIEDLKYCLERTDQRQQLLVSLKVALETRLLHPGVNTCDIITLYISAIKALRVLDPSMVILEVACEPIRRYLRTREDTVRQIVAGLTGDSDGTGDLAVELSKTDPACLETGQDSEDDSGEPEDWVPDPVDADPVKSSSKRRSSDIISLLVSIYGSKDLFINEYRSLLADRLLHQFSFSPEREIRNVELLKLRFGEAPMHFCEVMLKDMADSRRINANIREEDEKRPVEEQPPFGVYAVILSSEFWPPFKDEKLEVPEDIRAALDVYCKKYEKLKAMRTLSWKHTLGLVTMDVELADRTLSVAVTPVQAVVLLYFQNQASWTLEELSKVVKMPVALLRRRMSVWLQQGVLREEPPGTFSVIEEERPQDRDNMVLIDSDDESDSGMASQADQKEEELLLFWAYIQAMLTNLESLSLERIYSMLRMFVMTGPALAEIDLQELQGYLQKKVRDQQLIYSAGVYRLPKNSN
UniProt Q9CPX9: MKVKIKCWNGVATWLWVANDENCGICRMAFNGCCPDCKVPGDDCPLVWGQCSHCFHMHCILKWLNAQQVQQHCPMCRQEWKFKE

[2] = target: CCAAT/enhancer-binding protein β (C/EBPβ) (mouse (endogenous in 3T3-L1)) (UniProt P28033); experiment: co-IP; SETD5-V5-transduced 3T3-L1 preadipocytes cross-linked with 1.5 mM ethylene glycol bis(succinimidylsuccinate) and 1% formaldehyde; nuclear fraction; anti-C/EBPβ immunoprecipitation, de-crosslinked, immunoblot with anti-V5; 6 h of differentiation

CDC20 (from UniProt Q9JJ66 1-499)
binding [1]: binds

ANAPC2 (from UniProt Q8BZQ7 1-837)
binding [1]: binds

ANAPC11 (from UniProt Q9CPX9 1-84)
binding [1]: binds

B1: V5-tagged SETD5 (SET domain-containing 5), wild type (protein, UniProt Q5XJV7 1-1441)
chain: T1 sequence
binding [2]: binds

From paper PMC8639990
